Literature values, collected in patent publication US8211906B1, “Method of inhibiting growth of neoplastic cells and inhibiting infection by administering an immune enhancer drug” (priority 2003, dated 2012).
For at least one compound, name, drawing or mass did not settle the structure.

System: genital herpes
Conditions: one episodic treatment, topical gel; cited from earlier work

CCOCc1nc2c(N)nc3ccccc3c2n1CC(C)(C)O [resiquimod]
effect on genital herpes lesions: eradicates genital herpes lesions
